Some test systems named below: HepG2 (ATCC HB-8065); HeLa (ATCC CCL-2); THP-1 (ATCC TIB-202).
Assay in all cases: Cytotoxicity, MTT assay
Common to all, as to conditions: ratio of CC50/MIC

For the compound `C=C(C)[C@@H]1CC[C@]2(C(=O)N3CCN(C)CC3)CC[C@]3(C)[C@H](CC[C@@H]4[C@@]5(C)CCCNC(C)(C)[C@@H]5CC[C@]43C)[C@@H]12` [Compound 9], in the data set on HepG2 (ATCC HB-8065), the “HepG2 SI” value is recorded as 0.12. Further, in the data set on HeLa (ATCC CCL-2), the “HeLa SI” value was 1.21. For the same compound, in the data set with THP-1 (ATCC TIB-202), the “THP-1 SI” value worked out at 1.66.

In the case of `C=C(C)[C@@H]1CC[C@]2(COC(=O)c3cccnc3)CC[C@]3(C)[C@H](CC[C@@H]4[C@@]5(C)CCCNC(C)(C)[C@@H]5CC[C@]43C)[C@@H]12` [Compound 5], in the data set with HepG2 (ATCC HB-8065), the “HepG2 SI” value stood at 0.74. For the same compound, the “HeLa SI” value in the data set with HeLa (ATCC CCL-2) is on record as 2.22. Also, the “THP-1 SI” value in the data set on THP-1 (ATCC TIB-202) was 1.97.

As to `CC(C)=C1CCC=C2CC[C@]3(C)[C@H](CC[C@@H]4[C@@]5(C)CCCNC(C)(C)[C@@H]5CC[C@]43C)[C@H]21` [Compound 18], the “HepG2 SI” value in the data set on HepG2 (ATCC HB-8065) was 0.07. For the same compound, the “HeLa SI” value with HeLa (ATCC CCL-2) came to 0.55. The “THP-1 SI” value in the data set on THP-1 (ATCC TIB-202) is reported as 0.81.

`C=C(C)[C@@H]1CC[C@]2(C=NNC(=O)c3ccncc3)CC[C@]3(C)[C@H](CC[C@@H]4[C@@]5(C)CCCNC(C)(C)[C@@H]5CC[C@]43C)[C@@H]12` [Compound 7]: the “HepG2 SI” value in the data set with HepG2 (ATCC HB-8065) stood at 3.83. In addition, in the data set with HeLa (ATCC CCL-2), the “HeLa SI” value is 22.52. Further, in the data set on THP-1 (ATCC TIB-202), the “THP-1 SI” value turned out to be 20.5.

Regarding `CC1(C)CCC23CCC4(C)C(CCC5C6(C)CCCNC(C)(C)C6CCC54C)C2C1OC3` (centres unmarked) [Compound 17], the “HepG2 SI” value in the data set with HepG2 (ATCC HB-8065) is 0.04. Besides, the “HeLa SI” value in the data set on HeLa (ATCC CCL-2) is on record as 0.24. Further, the “THP-1 SI” value in the data set on THP-1 (ATCC TIB-202) is reported as 0.47.

Regarding `C=C(C)[C@@H]1CC[C@]2(C)CC[C@]3(C)[C@H](CC[C@@H]4[C@@]5(C)CCCNC(C)(C)[C@@H]5CC[C@]43C)[C@@H]12` [Compound 2, azepano-lupeol], in the data set with HepG2 (ATCC HB-8065), the “HepG2 SI” value is 0.08. The “HeLa SI” value in the data set on HeLa (ATCC CCL-2) is 0.52. In the data set with THP-1 (ATCC TIB-202), the “THP-1 SI” value is given as 0.5.

As for `C=C(C)[C@@H]1CC[C@]2(C(=O)NC3CCCCC3)CC[C@]3(C)[C@H](CC[C@@H]4[C@@]5(C)CCCNC(C)(C)[C@@H]5CC[C@]43C)[C@@H]12` [Compound 10], in the data set on HepG2 (ATCC HB-8065), the “HepG2 SI” value is on record as 0.38. Besides, the “HeLa SI” value with HeLa (ATCC CCL-2) was 2.38. For the same compound, the “THP-1 SI” value in the data set on THP-1 (ATCC TIB-202) was determined as 2.88.

Turning to `C=C(C)[C@@H]1CC[C@]2(CN)CC[C@]3(C)[C@H](CC[C@@H]4[C@@]5(C)CCCNC(C)(C)[C@@H]5CC[C@]43C)[C@@H]12` [Compound 3], the “HepG2 SI” value with HepG2 (ATCC HB-8065) is given as 0.07. Further, the “HeLa SI” value in the data set with HeLa (ATCC CCL-2) was found to be 0.34. Also, the “THP-1 SI” value in the data set on THP-1 (ATCC TIB-202) came to 1.

Regarding `C=C(C)[C@@H]1CC[C@]2(C(=O)NC(CO)Cc3ccccc3)CC[C@]3(C)[C@H](CC[C@@H]4[C@@]5(C)CCCNC(C)(C)[C@@H]5CC[C@]43C)[C@@H]12` (some centres unmarked) [Compound 8], the “HepG2 SI” value in the data set with HepG2 (ATCC HB-8065) came to 0.09. For the same compound, the “THP-1 SI” value in the data set on THP-1 (ATCC TIB-202) was 0.55.
